For two substances, binding results are on record in article PMC7917804.

By UniProt entry, the sequences of proteins in these tests, tags left out.
UniProt A5YKK6: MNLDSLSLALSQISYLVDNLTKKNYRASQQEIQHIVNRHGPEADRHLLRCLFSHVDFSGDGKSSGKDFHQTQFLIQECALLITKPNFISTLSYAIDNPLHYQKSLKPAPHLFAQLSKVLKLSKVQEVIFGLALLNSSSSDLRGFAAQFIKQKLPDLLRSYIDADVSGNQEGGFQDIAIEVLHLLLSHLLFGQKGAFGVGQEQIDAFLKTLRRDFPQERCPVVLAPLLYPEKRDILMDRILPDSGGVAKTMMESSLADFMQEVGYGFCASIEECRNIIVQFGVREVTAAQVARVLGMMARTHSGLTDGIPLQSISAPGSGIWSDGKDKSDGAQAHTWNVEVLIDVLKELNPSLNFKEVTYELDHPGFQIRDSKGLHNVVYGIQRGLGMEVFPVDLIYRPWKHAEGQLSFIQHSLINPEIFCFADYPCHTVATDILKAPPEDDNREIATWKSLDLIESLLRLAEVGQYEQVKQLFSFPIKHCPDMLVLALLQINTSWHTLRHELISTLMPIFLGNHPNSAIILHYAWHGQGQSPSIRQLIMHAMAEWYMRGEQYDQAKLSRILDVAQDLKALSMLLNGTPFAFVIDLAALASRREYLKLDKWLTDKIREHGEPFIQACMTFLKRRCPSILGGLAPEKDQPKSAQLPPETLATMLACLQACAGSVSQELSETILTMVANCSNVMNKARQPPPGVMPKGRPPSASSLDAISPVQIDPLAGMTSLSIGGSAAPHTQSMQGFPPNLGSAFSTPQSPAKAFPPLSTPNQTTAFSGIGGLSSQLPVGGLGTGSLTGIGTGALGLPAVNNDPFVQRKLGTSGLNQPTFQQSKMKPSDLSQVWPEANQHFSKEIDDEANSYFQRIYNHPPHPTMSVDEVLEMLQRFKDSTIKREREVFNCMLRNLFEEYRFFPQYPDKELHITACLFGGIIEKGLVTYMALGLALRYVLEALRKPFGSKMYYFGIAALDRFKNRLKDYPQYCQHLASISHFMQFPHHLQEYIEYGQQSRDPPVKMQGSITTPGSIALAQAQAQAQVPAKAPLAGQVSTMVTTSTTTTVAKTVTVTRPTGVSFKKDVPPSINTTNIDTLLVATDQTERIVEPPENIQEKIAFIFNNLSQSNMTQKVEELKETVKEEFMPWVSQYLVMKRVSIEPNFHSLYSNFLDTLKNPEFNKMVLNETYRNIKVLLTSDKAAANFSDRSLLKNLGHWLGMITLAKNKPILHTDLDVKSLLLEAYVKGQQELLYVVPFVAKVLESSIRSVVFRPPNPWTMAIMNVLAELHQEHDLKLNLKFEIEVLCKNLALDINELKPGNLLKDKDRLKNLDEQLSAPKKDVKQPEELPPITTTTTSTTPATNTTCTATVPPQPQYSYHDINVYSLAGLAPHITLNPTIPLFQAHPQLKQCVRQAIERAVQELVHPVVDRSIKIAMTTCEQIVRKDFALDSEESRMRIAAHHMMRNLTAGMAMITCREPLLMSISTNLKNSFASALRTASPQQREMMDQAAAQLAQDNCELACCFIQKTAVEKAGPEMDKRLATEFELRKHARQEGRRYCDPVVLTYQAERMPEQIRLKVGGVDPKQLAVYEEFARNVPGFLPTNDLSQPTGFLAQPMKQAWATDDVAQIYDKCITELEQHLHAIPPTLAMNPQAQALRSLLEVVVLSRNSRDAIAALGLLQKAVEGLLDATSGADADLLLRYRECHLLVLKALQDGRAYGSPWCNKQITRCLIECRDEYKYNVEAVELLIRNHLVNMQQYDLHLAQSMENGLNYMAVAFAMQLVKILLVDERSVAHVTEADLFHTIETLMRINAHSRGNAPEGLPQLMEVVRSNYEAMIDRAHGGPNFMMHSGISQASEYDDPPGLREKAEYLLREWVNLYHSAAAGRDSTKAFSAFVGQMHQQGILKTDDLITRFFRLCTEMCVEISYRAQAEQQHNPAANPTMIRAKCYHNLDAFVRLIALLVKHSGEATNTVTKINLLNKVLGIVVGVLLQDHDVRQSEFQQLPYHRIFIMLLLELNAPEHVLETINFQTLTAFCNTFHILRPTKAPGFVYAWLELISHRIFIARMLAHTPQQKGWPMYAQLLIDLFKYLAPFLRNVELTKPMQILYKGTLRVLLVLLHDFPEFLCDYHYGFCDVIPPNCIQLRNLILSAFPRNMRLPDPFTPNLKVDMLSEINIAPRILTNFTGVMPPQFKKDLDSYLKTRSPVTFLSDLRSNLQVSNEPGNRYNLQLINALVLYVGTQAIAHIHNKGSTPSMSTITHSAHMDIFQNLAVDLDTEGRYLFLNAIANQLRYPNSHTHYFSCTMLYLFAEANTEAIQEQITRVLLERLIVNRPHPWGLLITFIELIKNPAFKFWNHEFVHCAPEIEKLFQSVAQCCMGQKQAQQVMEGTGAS
UniProt Q92600: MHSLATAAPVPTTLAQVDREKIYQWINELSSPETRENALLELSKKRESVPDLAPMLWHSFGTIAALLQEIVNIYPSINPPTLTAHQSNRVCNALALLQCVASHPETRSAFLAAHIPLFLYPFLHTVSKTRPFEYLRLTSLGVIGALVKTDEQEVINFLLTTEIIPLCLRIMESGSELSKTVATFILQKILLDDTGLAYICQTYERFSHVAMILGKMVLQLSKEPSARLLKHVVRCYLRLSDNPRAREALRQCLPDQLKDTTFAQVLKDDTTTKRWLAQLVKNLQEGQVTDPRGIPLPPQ

Test [1] has as its target T1, myc-GFP-TNRC6A-SD-CIM2 (amino acids 1529-1709) (human) (UniProt Q8NDV7).
T1 sequence: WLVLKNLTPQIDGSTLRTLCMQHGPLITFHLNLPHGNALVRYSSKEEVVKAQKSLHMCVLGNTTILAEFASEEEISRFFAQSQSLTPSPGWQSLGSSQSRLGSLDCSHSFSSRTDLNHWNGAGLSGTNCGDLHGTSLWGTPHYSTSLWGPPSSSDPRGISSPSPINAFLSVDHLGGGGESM
The test is described as follows: co-IP; lysates of HeLa cells expressing GFP-tagged TNRC6A fragments, immunoprecipitated with anti-GFP antibody; endogenous CNOT1 and CNOT9 detected by Western blot.

Test [2] concerns the target T2, myc-GFP-TNRC6A-SD-CIM1 (amino acids 1224-1528) (human) (UniProt Q8NDV7).
T2 sequence: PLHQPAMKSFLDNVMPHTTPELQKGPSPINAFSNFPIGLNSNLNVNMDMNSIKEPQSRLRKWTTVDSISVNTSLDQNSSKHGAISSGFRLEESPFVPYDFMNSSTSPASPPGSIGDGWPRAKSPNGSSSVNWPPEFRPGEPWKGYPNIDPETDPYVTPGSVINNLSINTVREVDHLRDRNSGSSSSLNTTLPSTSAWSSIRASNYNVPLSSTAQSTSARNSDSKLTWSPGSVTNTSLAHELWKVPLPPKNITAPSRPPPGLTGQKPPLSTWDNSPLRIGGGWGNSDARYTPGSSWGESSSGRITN
The test is described as above.

These are yes or no findings as the source states them, for the method shown. In cells and extracts the contact can be indirect. Sequences can lack the tags named with a protein.

With CNOT1 (from UniProt A5YKK6 1-2376), the binding result in test [1] and in test [2] was “no binding” each time.

As to CNOT9 (from UniProt Q92600 1-299), the binding result in test [1] and in test [2] was “no binding” in each case.
